At least one structure is not confirmed: it was looked up by name or label, or the drawing left a doubt. Some compounds share one wording; it may come from a single statement.
Experiment: Preparation and stability of crystal suspensions of microcrystalline paclitaxel with solutions of different tri-O-acylglycerols

| Structure (SMILES) | sedimentation of the microcrystals | microcrystals intact in SEM images (SEM 200× and 1000×) |
| --- | --- | --- |
| CCCCCCCCCC(=O)OCC(COC(=O)CCCCCCCCC)OC(=O)CCCCCCCCC [tridecanoylglycerol] | no sedimentation | – |
| CCCCCCCCC(=O)OCC(COC(=O)CCCCCCCC)OC(=O)CCCCCCCC [trinonanoylglycerol] | no sedimentation | remained intact |
| CCCCCCCC(=O)OCC(COC(=O)CCCCCCC)OC(=O)CCCCCCC [trioctanoylglycerol] | no sedimentation | – |
